Source: PMC6251927

Sequences of proteins named here, by UniProt entry; tags and fusion partners are left off. A change or cut given only in a name is not applied to a line headed by its entry.
UniProt Q9NFU0: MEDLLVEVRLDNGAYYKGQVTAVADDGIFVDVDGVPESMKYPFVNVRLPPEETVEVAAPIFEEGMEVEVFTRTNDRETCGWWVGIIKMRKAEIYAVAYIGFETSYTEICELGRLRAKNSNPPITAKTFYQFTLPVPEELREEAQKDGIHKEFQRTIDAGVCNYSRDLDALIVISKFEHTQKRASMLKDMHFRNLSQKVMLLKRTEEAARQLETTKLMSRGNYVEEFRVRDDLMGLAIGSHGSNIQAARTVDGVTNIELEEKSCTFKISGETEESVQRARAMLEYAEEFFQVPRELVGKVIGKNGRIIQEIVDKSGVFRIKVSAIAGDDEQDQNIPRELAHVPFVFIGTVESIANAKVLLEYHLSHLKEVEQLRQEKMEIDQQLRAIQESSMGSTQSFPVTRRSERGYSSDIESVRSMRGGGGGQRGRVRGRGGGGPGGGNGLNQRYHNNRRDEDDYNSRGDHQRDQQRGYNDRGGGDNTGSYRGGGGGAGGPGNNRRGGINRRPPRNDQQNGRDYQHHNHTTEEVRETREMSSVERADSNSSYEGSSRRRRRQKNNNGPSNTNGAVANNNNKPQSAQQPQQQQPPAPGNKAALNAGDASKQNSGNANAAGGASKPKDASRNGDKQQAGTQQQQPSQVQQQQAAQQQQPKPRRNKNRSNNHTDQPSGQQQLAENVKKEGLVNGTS
UniProt Q9VUH8: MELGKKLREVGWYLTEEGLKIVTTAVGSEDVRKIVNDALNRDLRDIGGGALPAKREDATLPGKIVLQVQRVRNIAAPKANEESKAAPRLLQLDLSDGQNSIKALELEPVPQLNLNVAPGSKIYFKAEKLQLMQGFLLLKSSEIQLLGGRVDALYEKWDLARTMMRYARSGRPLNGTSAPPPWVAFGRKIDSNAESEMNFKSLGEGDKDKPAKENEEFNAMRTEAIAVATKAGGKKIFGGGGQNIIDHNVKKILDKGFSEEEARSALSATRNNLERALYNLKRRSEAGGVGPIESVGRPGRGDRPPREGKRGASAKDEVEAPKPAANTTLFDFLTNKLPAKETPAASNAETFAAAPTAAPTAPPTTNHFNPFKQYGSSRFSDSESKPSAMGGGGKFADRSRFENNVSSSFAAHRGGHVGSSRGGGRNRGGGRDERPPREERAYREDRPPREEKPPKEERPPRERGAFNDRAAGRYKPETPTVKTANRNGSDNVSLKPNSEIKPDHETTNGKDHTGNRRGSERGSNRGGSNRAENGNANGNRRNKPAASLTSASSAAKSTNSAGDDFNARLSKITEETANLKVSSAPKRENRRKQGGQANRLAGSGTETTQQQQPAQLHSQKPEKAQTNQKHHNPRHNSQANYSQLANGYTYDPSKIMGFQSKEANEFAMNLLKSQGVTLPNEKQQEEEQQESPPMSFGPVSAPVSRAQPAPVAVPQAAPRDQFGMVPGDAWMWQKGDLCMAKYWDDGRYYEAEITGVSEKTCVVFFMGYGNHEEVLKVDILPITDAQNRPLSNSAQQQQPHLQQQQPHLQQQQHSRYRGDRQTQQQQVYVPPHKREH
UniProt P19109: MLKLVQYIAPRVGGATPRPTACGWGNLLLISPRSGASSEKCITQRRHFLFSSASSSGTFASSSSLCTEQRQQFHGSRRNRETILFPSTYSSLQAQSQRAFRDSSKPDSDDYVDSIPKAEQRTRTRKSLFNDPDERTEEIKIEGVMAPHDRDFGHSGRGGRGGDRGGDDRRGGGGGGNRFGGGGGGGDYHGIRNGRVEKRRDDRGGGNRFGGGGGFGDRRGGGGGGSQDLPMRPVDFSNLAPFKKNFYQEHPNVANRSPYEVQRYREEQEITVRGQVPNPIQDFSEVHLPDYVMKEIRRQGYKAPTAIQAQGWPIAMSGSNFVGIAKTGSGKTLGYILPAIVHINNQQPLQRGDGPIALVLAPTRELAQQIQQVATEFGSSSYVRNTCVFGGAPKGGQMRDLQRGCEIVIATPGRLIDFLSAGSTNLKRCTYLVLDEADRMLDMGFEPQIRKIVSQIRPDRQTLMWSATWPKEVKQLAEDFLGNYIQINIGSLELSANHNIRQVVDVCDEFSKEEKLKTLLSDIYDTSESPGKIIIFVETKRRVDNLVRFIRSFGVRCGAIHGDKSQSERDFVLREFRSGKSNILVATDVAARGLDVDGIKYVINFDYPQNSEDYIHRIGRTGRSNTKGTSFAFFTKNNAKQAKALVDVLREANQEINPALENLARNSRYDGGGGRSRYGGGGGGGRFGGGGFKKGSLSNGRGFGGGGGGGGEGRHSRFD

T1: Flag-tagged Top3β (Drosophila) (UniProt O96651)
T1 sequence: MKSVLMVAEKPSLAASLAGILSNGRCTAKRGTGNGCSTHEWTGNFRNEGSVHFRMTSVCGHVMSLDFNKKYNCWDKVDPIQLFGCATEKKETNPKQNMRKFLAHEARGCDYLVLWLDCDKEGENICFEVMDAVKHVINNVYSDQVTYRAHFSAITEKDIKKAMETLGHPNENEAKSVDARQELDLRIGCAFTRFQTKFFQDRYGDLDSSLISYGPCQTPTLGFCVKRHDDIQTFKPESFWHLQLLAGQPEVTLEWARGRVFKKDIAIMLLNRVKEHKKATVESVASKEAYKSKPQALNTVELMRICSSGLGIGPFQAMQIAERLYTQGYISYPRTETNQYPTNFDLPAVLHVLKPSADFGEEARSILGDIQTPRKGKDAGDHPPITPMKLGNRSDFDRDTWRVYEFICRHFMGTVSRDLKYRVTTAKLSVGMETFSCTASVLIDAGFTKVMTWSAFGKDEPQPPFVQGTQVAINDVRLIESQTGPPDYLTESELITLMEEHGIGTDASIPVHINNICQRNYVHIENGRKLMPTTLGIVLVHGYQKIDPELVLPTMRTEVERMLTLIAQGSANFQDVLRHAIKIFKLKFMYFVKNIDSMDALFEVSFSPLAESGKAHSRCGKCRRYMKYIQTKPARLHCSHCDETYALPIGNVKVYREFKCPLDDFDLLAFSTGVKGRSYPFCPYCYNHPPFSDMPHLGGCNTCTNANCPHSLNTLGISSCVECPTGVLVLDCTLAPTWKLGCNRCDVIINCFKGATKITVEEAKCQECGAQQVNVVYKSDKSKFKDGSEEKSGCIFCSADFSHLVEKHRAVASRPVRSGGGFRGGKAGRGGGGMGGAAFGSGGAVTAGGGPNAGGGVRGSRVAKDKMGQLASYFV

B1: Argonaute 2 (AGO2) (protein, UniProt Q9VUQ5 1-1214)
chain: MGKKDKNKKGGQDSAAAPQPQQQQKQQQQRQQQPQQLQQPQQLQQPQQLQQPQQQQQQQPHQQQQQSSRQQPSTSSGGSRASGFQQGGQQQKSQDAEGWTAQKKQGKQQVQGWTKQGQQGGHQQGRQGQDGGYQQRPPGQQQGGHQQGRQGQEGGYQQRPPGQQQGGHQQGRQGQEGGYQQRPSGQQQGGHQQGRQGQEGGYQQRPPGQQQGGHQQGRQGQEGGYQQRPSGQQQGGHQQGRQGQEGGYQQRPPGQQQGGHQQGRQGQEGGYQQRPPGQQQGGHEQGRQGQEGGYQQRPSGQQQGGHQQGRQGQEGGYQQRPSGQQQGGHQQGRQGQEGGYQQRPSGQQQGGHQQGRQGQEGGYQQRPPGQQPNQTQSQGQYQSRGPPQQQQAAPLPLPPQPAGSIKRGTIGKPGQVGINYLDLDLSKMPSVAYHYDVKIMPERPKKFYRQAFEQFRVDQLGGAVLAYDGKASCYSVDKLPLNSQNPEVTVTDRNGRTLRYTIEIKETGDSTIDLKSLTTYMNDRIFDKPMRAMQCVEVVLASPCHNKAIRVGRSFFKMSDPNNRHELDDGYEALVGLYQAFMLGDRPFLNVDISHKSFPISMPMIEYLERFSLKAKINNTTNLDYSRRFLEPFLRGINVVYTPPQSFQSAPRVYRVNGLSRAPASSETFEHDGKKVTIASYFHSRNYPLKFPQLHCLNVGSSIKSILLPIELCSIEEGQALNRKDGATQVANMIKYAATSTNVRKRKIMNLLQYFQHNLDPTISRFGIRIANDFIVVSTRVLSPPQVEYHSKRFTMVKNGSWRMDGMKFLEPKPKAHKCAVLYCDPRSGRKMNYTQLNDFGNLIISQGKAVNISLDSDVTYRPFTDDERSLDTIFADLKRSQHDLAIVIIPQFRISYDTIKQKAELQHGILTQCIKQFTVERKCNNQTIGNILLKINSKLNGINHKIKDDPRLPMMKNTMYIGADVTHPSPDQREIPSVVGVAASHDPYGASYNMQYRLQRGALEEIEDMFSITLEHLRVYKEYRNAYPDHIIYYRDGVSDGQFPKIKNEELRCIKQACDKVGCKPKICCVIVVKRHHTRFFPSGDVTTSNKFNNVDPGTVVDRTIVHPNEMQFFMVSHQAIQGTAKPTRYNVIENTGNLDIDLLQQLTYNLCHMFPRCNRSVSYPAPAYLAHLVAARGRVYLTGTNRFLDLKKEYAKRTIVPEFMKKNPMYFV
B2: Caprin (protein, UniProt Q9I7D3 1-961)
chain: MPSAANTATVTAAIATTVAASASNTNNNSVSKEKRSSIISLGGSVIPGTAVAAGAGVATTNGQSNSSAAATADGSQTDLASSNNNGNAAKSKANAVSAAAVVPEPYNPLKQLLVTIEHKIRNLEKRKTKLESYRAIQSSGKELSGDQASAVAKYDAVLANLEFARELAKHIQQQSKEAEKEQKKQARKDNLAKTIAETAKIREVLIIQNVLNCFNDDQVRSDFLNGENGAKKLENTELELLEKFFIETQTRRPETADDVSFIATAQKSAELFYSTINARPKSFGEVSFEKLRSLFQQIQDSGYLDKYYLVPLAENAVANSTDSGTGSGDGESGDLLNDGSGELDAELPSEPSARNSLEEGLDKLHLGVQAELDQHQSYQQQQERPSHLLEPQHQRAPSLEHQQNSMVQQVSTQVYQAAPQAGGTTTPVHVLYAPAPPAQQQPQQPPPHPHQLLSSPVNLQALQTGTAAPPAQQQQPHPTHFAPNVRAVEQNYFKQPPQHPQGPGIQAPQTPQQQQFMQHSRPLAEVLGTGRFHFLQDSELDNPEALAPPPPTNQGLVFEQQPQQPNHVEEPTQAILTLTFTNQSFPSQQPQPQQQGPQQQQQLFSPVLIHEQRQQPPQQQPQPMLIMPRLPTQQPQQPAPQGIGMQAGDVTSGFSYENAVVSYEQQIQQQLKQQQQQQQQQQQNLQQLDEPSSVNSSSSVGAGGDVENNEWHARNNDTNAAATAALTNVLKGETTQATPPAPPTKWSSEMNAMSSAASNGSSNTSHKQEWATPRDHSTGGGNSGYADNNESNNHWNNSQGDGRRNSGNYQRRGGDRDNRDRDQGGRGDERRNGGDRGNYRSRQYGNSSNTNGRNSGNSSGVYFRNNESGNGGGNNYYQNGGGGGGTYNKESRYESSGGGGGSYRGQRGGNQQRNVNGSYGGGRPMGDRGRGGAGNQGGGGGGYINRQNQSQRMPLGLENKN
B3: Rin (protein, UniProt Q9VFT4 1-690)
chain: MVMDATQSQQPSPQSVGREFVRQYYTLLNKAPNHLHRFYNHNSSYIHGESKLVVGQREIHNRIQQLNFNDCHAKISQVDAQATLGNGVVVQVTGELSNDGQPMRRFTQTFVLAAQSPKKYYVHNDIFRYQDLYIEDEQDGESRSENDEEHDVQVVGGTVDQAVQVAGDVVAQQPQQQQAPPQPQAQVVVPQQVAPVAAGGAAPQQIFYPLPAGAAAGRPVAVLPPAPQAAAVPLPAQFTVPPPQPIQNGVVSHEELQQQQVLVPPSVSPLVQQQQPTGTPVLPIVPVPSAGFQQSPLVAPQLIQQQQQQQPAQLPPQQQQQQQPIQQQQPLQQQQQPLAEPEEVEVAPRQQKPPTPVEDFKTIHEQQQQEKYEAAKQQQNEPKTYANLFKSTSSSPSGFVNAALQQQQQLQQQQQQQQSISSNTYNSSSATSGGGNGSQVSYSTTASSYNNSNGNSRLDNGGPLPQRNNSIRNNKGDFEQRRSSNTQQFGDNQQLFLGNIPHHASEDDLREIFSRFGNVLELRILSKAGNKVPPGMRSPLNYGFITYDDPEAVQKCLANCPLYFPENSPDGQKLNVEEKKPRVRNDMVPRQQIGGNNLNNNMGRLGGNNGPQSRPMGNNNGSGGGMMRNNAGGNNLRQGGGGGNGAPRLGGGGGFGQRQDNRTGGGNNQSNGPLRGAGNGQSGGGNYGRR
B4: Vig (an RBP) (protein, UniProt Q9V426 1-490)
chain: MDSAGKNRYELLFMDDDVSDPLDNLVAPTAAAAAAAAGKKKQPSAAAAAATKTTANKVANSNNKANAGSNIGGPNAKKPNQAEKENKPNNALNKTDGKKFTPSADNKQQQFNNNASSNYKQQGAPRQGGGANRTREFGSGQGQGQGQGGQQQRSVNFRQQNGNAETREQRNNRRNVRENVGAPDGQQSRPYRGPGGGPGAGGDRPQRQNRNYDGQNRKREFDRQSGSDRTGVKSIDKRDGAGSHNWGSVKEAIDDVNKNESETNVTNAEGGAKADESGTEPQNEQATAEEEAKELTLDEWKAQQGQRIKPTFNIRKAGEGEDTTQWKKMVVLTSNKKKENDSEEELEYDPALYPQRVGRQQRVLDIQFNFNDGRRGGPGGFGGRGGRGGPRPGGFGGGPRSEGGNRDGGNREGGRDNREGGNRGPRDGQQHNNEGGGSSAQNQRPPIDRRGPGNNQNNNQNSGPGPNKRFERQQNTAPKVNDERQFPTLA

What was measured:
[1] = biological target: Drosophila FMRP (Drosophila (endogenous in S2 cells)) (UniProt Q9NFU0); assay: affinity purification with mass spectrometry; IP with an FMRP antibody from S2 cells, silver-stained SDS-PAGE and MS of the entire immunoprecipitate
[2] = biological target: Drosophila TDRD3 (Tudor domain-containing 3) (Drosophila (endogenous in S2 cells)) (UniProt Q9VUH8); assay: affinity purification with mass spectrometry; IP with two antibodies against Drosophila TDRD3 (TDRD3-A and C) from S2 cell lysates, silver-stained SDS-PAGE and MS of the entire immunoprecipitate; also done with RNase A-treated extracts (fewer peptides of FMRP, p68 and AGO2)
[3] = biological target: Flag-Top3β mutant deleted of its RGG-box (Drosophila) (UniProt O96651); assay: affinity purification with mass spectrometry; Flag antibody IP from transfected S2 cells, cell extracts treated with RNase A, MS
[4] = biological target: T1, Flag-tagged Top3β (Drosophila); assay: as above
[5] = biological target: Flag full-length TDRD3 (Drosophila); assay: affinity purification with mass spectrometry; Flag antibody IP from S2 cells transfected with Flag-Top3β, Flag-Top3β-ΔRGG or Flag-TDRD3, MS; mock-IP from S2 cells lacking the Flag proteins as control; extracts not treated with RNase
[6] = biological target: Flag-Top3β mutant deleted of its RGG-box (Drosophila) (UniProt O96651); assay: as above
[7] = biological target: T1, Flag-tagged Top3β (Drosophila); assay: as above

Row | Molecule | binding [1] | binding [2] | further results
1 | p68 RNA helicase (encoded by Rm62) (from UniProt P19109 1-719) (enzyme) | binds | binds | –
2 | B1 | – | binds | binding [3]: binds; binding [4]: binds; binding [5]: binds; binding [6]: binds; binding [7]: binds
3 | B2 | binds | – | –
4 | B3 | binds | – | –
5 | B4 | – | binds | –

No constants are given. Whether binding was seen depends on the method and setting. Binding seen in cells or lysates may run through a third protein. Here binding means that the protein was enriched with, or labelled near, the bait; the list need not be complete. For some assays here: Tags and fused reporters may be left off the sequences shown.
